The supplement of paper PMC8007513
Where a name gives a salt, the structure may show the parent alone. ± gives the standard error. This list holds what a sample rich in strong results left over.

Test system: Trichoderma virens ATCC 9645
Experiment: growth yield (OD600) with compound + IPBC relative to untreated control; higher = less growth inhibition
Details: compound concentration: 100 uM, IPBC concentration: 200 ng/ml
In short: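 Trichoderma virens ATCC 9645 spores from 7-day potato dextrose agar plates were suspended in potato dextrose broth at 15,000 spores ml^−1. Aliquots of 100 μl with library compounds at 100 μM final, with or without a co-applied biocide at 200 ng ml^−1, were grown in 96-well plates at 30 °C. OD600 was read at 40 h and 72 h on a BioTek EL800. Growth is expressed relative to the control without either agent, as means of duplicate screens.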

## CN1[C@@H]2CC[C@H]1C[C@@H](OC(=O)C(O)c1ccccc1)C2 (mixture of isomers) [Homatropine hydrobromide (R,S)] + CCCCNC(=O)OCC#CI [3-iodo-2-propynyl butylcarbamate (IPBC)]
40 h
  growth yield: 91.2 ± 4.8%
72 h
  growth yield: 92.2 ± 3.5%
